The target of assay [1] is T1, OsNEK6 full length in pGBKT7 (bait) (rice (Oryza sativa)) (UniProt Q6YY75).
T1 sequence: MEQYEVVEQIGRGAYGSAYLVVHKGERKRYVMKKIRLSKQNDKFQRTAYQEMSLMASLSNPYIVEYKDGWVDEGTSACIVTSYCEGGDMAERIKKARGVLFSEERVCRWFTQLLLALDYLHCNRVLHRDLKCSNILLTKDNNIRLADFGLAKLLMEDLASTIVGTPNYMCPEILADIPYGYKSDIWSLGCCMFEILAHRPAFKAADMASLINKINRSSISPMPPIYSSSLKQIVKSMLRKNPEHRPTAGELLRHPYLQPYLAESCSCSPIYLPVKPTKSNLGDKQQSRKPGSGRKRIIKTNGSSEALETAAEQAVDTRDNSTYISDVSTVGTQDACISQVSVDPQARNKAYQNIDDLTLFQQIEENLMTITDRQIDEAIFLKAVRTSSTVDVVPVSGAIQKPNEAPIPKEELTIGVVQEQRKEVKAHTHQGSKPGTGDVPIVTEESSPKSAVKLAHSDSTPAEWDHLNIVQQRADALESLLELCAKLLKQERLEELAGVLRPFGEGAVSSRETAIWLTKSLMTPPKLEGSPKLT
Put plainly: two-hybrid; pairwise co-transformation of pGADT7 and pGBKT7 constructs into yeast strain Y2H Gold; SD/-Trp/-Leu, then SD/-Ade/-His/-Trp/-Leu/X-alpha-Gal plates for 3-5 days.

The target of assay [2] is T2, OsNEK6-cYFP (rice (Oryza sativa)) (UniProt Q6YY75).
T2 sequence: T1 sequence
Put plainly: split reporter; BiFC; pSAT6-NYFP and pSAT6-CYFP constructs transiently expressed in rice protoplasts via PEG transformation for 2 days; confocal microscopy.

Assay [3] deals with OsCAMK1 full length in pGBKT7 (bait) (rice (Oryza sativa)) (UniProt Q10SI6). Put plainly: two-hybrid; pairwise co-transformation of pGADT7 and pGBKT7 constructs into yeast strain Y2H Gold; SD/-Trp/-Leu, then SD/-Ade/-His/-Trp/-Leu/X-alpha-Gal plates for 3-5 days.
Assay [4] addresses OsCAMK1-nYFP (rice (Oryza sativa)). Nature of the assay: split reporter; BiFC; pSAT6-NYFP and pSAT6-CYFP constructs transiently expressed in rice protoplasts via PEG transformation for 2 days; confocal microscopy.

These are yes or no findings as the source states them, for the method shown. Binding calls can cover weak binding; strength is not graded here. For some of these results: In cells and extracts the contact can be indirect. For some of these results: Sequences can lack the tags named with a protein.

On to “OsCAMK1 full length in pGADT7 (prey) (from UniProt Q10SI6)”, for which, in assay [1], the binding result is “binds”.
Take OsCAMK1-nYFP (rice (Oryza sativa)): the binding entry in assay [2] is listed as “binds”.

B1: OsDi19-3 full length in pGADT7 (prey) (protein, UniProt Q5QMP3 1-246)
chain: MDSEHWISSLAAAKRFYAAQLGHVDDMAGIGMEEVEMEMEDDGEGMELELEMQLEEATWPDVACPYCYEDHDIASLCAHLEEDHPYEPHTSPCPICFEKITRDMLNHITMQHGYLFKSGRRMRRFDIPESQALSLLSRDLRDAQLQALLGGGHRQRRSNTTATNISADPLLSSFGLGFSTLDSEERSKAPVPIPDDTSIHKDTPAQPWESRIDSSLTSEEREQKRKQATDRATFVQGLVLSTLFED
On to B1, for which the binding entry in assay [3] was “binds”.

B2: OsDi19-cYFP (protein, UniProt Q5QMP3 1-246)
chain: B1 chain
For the molecule B2, the binding result in assay [4] was “binds”.

(Values after publication PMC12115221.)
